Results on 1 molecule are retold here after article PMC8324300.

Chains of the proteins cited; added tags and fusions are not shown. Lines headed by an entry give the natural chain unless they say otherwise; changes in a name come on top.
UniProt Q8WUX9: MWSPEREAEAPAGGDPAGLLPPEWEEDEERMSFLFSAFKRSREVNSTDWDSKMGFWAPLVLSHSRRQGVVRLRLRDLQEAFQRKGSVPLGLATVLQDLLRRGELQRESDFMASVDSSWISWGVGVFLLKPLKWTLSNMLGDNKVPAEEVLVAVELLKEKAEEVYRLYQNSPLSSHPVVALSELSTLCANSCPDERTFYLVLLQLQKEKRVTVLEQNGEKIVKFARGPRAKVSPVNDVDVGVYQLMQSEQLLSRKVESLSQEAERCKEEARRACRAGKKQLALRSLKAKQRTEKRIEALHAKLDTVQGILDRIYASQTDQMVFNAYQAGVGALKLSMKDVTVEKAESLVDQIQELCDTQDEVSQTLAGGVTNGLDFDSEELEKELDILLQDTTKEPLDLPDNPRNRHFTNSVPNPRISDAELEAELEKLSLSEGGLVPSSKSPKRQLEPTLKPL

The target in the test is GFP-CHMP7 δHelix6 (human) (UniProt Q8WUX9). Put plainly: co-IP; GFP-trap capture from 293T cells transiently expressing HA-CHMP4B and GFP-CHMP7 or GFP-CHMP7 δHelix6; blots with anti-GFP and anti-HA.

Results are given in words; binding and its absence hold for the method and conditions named. In cells and extracts the contact can be indirect. A result given as binding can be weak or reduced; the word gives no strength. Where a sequence is shown, tags or fusion partners need not be part of it.

B1: HA-CHMP4B (protein, UniProt Q9H444 1-224)
chain: MSVFGKLFGAGGGKAGKGGPTPQEAIQRLRDTEEMLSKKQEFLEKKIEQELTAAKKHGTKNKRAALQALKRKKRYEKQLAQIDGTLSTIEFQREALENANTNTEVLKNMGYAAKAMKAAHDNMDIDKVDELMQDIADQQELAEEISTAISKPVGFGEEFDEDELMAELEELEQEELDKNLLEISGPETVPLPNVPSIALPSKPAKKKEEEDDDMKELENWAGSM
Regarding B1, the binding result is “binds”.
